Measured values: patent US7915255B2, “Metabolism-modulating agents and uses therefor” (Verva Pharmaceuticals Pty Ltd, priority 2004, dated 2011)
At least one compound was matched to its structure with a doubt left.

Assays:
Assay type in all cases: cell-based
IMPDH [1] = test: Translocation of IMPDH to lipid bodies (immunofluorescence, sucrose gradient flotation); conditions: CHO.IR cells
Akt = Akt phosphorylation (immunoblotting); conditions: oleate 15 min, CHO.IR cells
Method: 3T3-L1 cells, CHO.IR cells (46) and fibroblast cells derived from vimentin null (Vim^−/−) mice were cultured as described (28, 47). Human preadipocytes were cultured and differentiated as described (47). Transfections were performed using Lipofectamine. Cells were serum starved for at least 2 h before treatment with insulin (1 μM, 15 min) or pre-treatment with wortmannin (100 nM, 25 min), LY294002 (50 μM, 10 min) or C2-ceramide (100 μM, 2 h) followed by insulin or oleate. To induce lipid body accumulation cells were cultured in regular growth medium supplemented with 200 μM oleate complexed to fatty acid free bovine serum albumin (BSA) in a 6:1 molar ratio. Mycophenolic acid (MPA) was dissolved in methanol to give a stock solution of 30 mM. This was further diluted in methanol, prior to direct addition to the culture media such that the final concentration of methanol was always 0.1%. Guanosine was dissolved in DMSO to give a stock solution of 100 mM. […]
For western blotting, following appropriate treatment, cells were harvested in lysis buffer (50 mM HEPES (pH 7.4), 150 mM NaCl, 1% Triton-X-100, 1 mM Na3VO4, 30 mM NaF, 10 mM Na4P2O7, 10 mM EDTA, 1 μg/ml aprotinin, 1 μg/ml leupeptin, 2 mM PMSF) and clarified by centrifugation (2,000×g for 10 min). Protein concentration was determined using the BCA assay. […]

IMPDH [2] = test: Insulin-stimulated 32P phosphorylation of IMPDH
Method: 3T3-L1 cells, CHO.IR cells (46) and fibroblast cells derived from vimentin null (Vim^−/−) mice were cultured as described (28, 47). Human preadipocytes were cultured and differentiated as described (47). Transfections were performed using Lipofectamine. Cells were serum starved for at least 2 h before treatment with insulin (1 μM, 15 min) or pre-treatment with wortmannin (100 nM, 25 min), LY294002 (50 μM, 10 min) or C2-ceramide (100 μM, 2 h) followed by insulin or oleate. To induce lipid body accumulation cells were cultured in regular growth medium supplemented with 200 μM oleate complexed to fatty acid free bovine serum albumin (BSA) in a 6:1 molar ratio. Mycophenolic acid (MPA) was dissolved in methanol to give a stock solution of 30 mM. This was further diluted in methanol, prior to direct addition to the culture media such that the final concentration of methanol was always 0.1%. Guanosine was dissolved in DMSO to give a stock solution of 100 mM. This was further diluted in DMSO, prior to direct addition to the culture media such that the final concentration of DMSO was always 0.33%. Media was refreshed, with addition of fresh MPA, guanosine, or vehicle, every 3 days as appropriate. […] Samples were subjected to SDS-PAGE and analysed by immunoblotting and autoradiography. […]

O=c1cc(N2CCOCC2)oc2c(-c3ccccc3)cccc12 [LY294002]
adipophilin levels in buoyant fraction (IMPDH [1]; LY294002 + oleate 24 h): consistently reduced | oleate-induced redistribution of IMPDH to buoyant fraction 1 (sucrose gradient) (IMPDH [1]; LY294002 + oleate 24 h): blocked by inhibition of PI 3-kinase | insulin- or oleate-stimulated translocation of IMPDH to lipid bodies (IMPDH [1]; LY294002 pre-treatment): blocked insulin- or oleate-stimulated translocation of IMPDH | oleate-induced Akt phosphorylation (Akt): inhibited

CO[C@H]1C[C@@H]2CC[C@@H](C)[C@@](O)(O2)C(=O)C(=O)N2CCCC[C@H]2C(=O)O[C@H]([C@H](C)C[C@@H]2CC[C@@H](O)[C@H](OC)C2)CC(=O)[C@H](C)/C=C(\C)[C@@H](O)[C@@H](OC)C(=O)[C@H](C)C[C@H](C)/C=C/C=C/C=C/1C [rapamycin]
role of the inhibited kinase (atypical PKCs; mTOR and p70S6 kinase) in insulin-stimulated IMPDH phosphorylation (IMPDH [2]; Gö6983 1 μM, rapamycin 22 nM, data not shown): eliminated

COC[C@H]1OC(=O)c2coc3c2[C@@]1(C)C1=C(C3=O)[C@@H]2CCC(=O)[C@@]2(C)C[C@H]1OC(C)=O [wortmannin]
insulin-stimulated phosphorylation of IMPDH (spot H38) (IMPDH [2]; wortmannin 100 nM pretreatment, 3T3-L1 adipocytes): inhibited
